From paper PMC3547912 come the findings set out here.

Chains of the proteins cited; added tags and fusions are not shown. Lines headed by an entry give the natural chain unless they say otherwise; changes in a name come on top.
UniProt Q10443: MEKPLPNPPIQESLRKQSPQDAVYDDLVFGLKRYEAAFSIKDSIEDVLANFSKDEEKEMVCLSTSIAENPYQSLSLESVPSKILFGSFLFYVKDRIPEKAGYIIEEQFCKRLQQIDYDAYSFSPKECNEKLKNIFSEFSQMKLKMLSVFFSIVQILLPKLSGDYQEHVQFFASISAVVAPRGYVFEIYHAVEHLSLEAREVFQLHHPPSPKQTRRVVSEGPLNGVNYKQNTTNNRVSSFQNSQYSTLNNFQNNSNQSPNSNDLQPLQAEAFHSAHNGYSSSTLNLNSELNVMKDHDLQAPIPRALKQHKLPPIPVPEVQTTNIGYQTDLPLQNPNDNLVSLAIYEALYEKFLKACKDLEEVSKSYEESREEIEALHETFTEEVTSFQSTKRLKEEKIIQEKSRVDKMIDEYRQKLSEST

Results are given in words; binding and its absence hold for the method and conditions named. In cells and extracts the contact can be indirect. Binding calls can cover weak binding; strength is not graded here. Tags and fused reporters may be left off the sequences shown.

In the test the target is T1, Gef2-3GFP (S. pombe) (UniProt Q09733).
T1 sequence: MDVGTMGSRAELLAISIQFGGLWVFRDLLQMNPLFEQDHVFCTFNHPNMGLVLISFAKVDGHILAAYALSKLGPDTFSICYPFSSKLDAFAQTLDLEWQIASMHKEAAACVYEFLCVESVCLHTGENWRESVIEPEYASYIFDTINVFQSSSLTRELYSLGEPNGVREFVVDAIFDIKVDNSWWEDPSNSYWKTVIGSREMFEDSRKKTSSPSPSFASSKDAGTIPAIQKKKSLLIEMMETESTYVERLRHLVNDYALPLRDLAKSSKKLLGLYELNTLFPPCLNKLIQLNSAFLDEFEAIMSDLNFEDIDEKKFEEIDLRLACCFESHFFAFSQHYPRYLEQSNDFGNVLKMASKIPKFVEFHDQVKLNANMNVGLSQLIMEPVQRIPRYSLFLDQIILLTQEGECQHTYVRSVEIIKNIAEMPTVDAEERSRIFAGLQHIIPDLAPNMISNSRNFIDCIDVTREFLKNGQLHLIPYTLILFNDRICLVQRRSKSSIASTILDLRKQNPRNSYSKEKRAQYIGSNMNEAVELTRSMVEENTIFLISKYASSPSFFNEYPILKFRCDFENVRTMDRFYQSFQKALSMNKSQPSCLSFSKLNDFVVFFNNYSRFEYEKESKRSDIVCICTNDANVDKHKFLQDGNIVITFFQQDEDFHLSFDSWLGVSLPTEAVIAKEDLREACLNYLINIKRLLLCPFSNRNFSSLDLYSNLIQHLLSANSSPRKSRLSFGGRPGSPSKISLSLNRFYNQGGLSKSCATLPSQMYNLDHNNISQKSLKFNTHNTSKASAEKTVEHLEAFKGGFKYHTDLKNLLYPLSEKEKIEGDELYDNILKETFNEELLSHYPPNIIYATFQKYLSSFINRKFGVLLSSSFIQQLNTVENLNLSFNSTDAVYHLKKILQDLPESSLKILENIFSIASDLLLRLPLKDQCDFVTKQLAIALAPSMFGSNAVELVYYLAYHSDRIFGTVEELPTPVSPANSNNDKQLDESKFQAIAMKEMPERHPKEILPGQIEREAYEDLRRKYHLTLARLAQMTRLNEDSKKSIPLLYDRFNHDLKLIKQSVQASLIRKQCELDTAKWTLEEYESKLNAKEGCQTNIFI
Briefly: co-IP; reciprocal co-IPs from whole cell extracts (0.5-4 mg) of asynchronous S. pombe, protein-A Dynabeads with anti-3PK, anti-Flag or anti-GFP, 2 h at 4°C; wild-type cells (the Nod1-Gef2 pair also in blt1Δ cells).

For Nod1-3PK (from UniProt Q10443), the binding entry was “binds”.
